Values of other authors, collected in patent US9301963B2, “Treatment tool and method of gradual withdrawal from bezodiazepine dependency” (priority 2011, dated 2016).

Test system: CYP 450 enzymes
Conditions: cited from earlier work

CN1C(=O)CN=C(c2ccccc2)c2cc(Cl)ccc21 [Diazepam]
metabolites: one inactive metabolite and two active metabolites

CN1C(=O)C(O)N=C(c2ccccc2)c2cc(Cl)ccc21 (centres unmarked) [Temazepam]
metabolism by CYP 450 enzyme pathways: not metabolized by the CYP 450 enzyme pathways
